Results published in the supplement of paper PMC10849652.
Some of the results follow.

Amino acid sequences for entries named in this document (tags omitted). A change or cut given only in a name is not applied to a line headed by its entry.
UniProt Q13469: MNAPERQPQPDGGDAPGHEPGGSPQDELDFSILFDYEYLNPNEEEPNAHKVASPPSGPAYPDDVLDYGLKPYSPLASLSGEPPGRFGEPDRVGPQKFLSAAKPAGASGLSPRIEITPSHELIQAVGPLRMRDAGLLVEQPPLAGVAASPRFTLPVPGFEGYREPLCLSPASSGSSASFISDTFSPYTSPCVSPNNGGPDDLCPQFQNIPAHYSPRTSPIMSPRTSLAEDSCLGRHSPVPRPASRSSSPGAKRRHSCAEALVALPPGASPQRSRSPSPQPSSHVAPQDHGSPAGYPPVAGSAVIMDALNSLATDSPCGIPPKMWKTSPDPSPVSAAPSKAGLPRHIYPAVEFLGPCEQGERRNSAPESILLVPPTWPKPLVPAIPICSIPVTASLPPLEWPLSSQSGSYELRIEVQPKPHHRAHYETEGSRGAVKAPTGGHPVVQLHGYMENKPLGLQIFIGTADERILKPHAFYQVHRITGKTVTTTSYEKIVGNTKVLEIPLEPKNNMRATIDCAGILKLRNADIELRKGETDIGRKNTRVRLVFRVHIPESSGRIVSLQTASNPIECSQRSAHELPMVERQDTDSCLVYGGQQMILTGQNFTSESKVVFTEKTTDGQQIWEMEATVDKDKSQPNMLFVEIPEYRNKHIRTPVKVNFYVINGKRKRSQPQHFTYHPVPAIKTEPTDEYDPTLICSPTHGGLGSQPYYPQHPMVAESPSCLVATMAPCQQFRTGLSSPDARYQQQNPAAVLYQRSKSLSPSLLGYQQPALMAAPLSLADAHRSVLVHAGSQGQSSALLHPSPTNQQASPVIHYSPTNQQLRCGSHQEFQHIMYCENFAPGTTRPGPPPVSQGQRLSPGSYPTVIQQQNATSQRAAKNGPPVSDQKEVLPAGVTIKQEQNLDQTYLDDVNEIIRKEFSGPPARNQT
UniProt Q6KC79: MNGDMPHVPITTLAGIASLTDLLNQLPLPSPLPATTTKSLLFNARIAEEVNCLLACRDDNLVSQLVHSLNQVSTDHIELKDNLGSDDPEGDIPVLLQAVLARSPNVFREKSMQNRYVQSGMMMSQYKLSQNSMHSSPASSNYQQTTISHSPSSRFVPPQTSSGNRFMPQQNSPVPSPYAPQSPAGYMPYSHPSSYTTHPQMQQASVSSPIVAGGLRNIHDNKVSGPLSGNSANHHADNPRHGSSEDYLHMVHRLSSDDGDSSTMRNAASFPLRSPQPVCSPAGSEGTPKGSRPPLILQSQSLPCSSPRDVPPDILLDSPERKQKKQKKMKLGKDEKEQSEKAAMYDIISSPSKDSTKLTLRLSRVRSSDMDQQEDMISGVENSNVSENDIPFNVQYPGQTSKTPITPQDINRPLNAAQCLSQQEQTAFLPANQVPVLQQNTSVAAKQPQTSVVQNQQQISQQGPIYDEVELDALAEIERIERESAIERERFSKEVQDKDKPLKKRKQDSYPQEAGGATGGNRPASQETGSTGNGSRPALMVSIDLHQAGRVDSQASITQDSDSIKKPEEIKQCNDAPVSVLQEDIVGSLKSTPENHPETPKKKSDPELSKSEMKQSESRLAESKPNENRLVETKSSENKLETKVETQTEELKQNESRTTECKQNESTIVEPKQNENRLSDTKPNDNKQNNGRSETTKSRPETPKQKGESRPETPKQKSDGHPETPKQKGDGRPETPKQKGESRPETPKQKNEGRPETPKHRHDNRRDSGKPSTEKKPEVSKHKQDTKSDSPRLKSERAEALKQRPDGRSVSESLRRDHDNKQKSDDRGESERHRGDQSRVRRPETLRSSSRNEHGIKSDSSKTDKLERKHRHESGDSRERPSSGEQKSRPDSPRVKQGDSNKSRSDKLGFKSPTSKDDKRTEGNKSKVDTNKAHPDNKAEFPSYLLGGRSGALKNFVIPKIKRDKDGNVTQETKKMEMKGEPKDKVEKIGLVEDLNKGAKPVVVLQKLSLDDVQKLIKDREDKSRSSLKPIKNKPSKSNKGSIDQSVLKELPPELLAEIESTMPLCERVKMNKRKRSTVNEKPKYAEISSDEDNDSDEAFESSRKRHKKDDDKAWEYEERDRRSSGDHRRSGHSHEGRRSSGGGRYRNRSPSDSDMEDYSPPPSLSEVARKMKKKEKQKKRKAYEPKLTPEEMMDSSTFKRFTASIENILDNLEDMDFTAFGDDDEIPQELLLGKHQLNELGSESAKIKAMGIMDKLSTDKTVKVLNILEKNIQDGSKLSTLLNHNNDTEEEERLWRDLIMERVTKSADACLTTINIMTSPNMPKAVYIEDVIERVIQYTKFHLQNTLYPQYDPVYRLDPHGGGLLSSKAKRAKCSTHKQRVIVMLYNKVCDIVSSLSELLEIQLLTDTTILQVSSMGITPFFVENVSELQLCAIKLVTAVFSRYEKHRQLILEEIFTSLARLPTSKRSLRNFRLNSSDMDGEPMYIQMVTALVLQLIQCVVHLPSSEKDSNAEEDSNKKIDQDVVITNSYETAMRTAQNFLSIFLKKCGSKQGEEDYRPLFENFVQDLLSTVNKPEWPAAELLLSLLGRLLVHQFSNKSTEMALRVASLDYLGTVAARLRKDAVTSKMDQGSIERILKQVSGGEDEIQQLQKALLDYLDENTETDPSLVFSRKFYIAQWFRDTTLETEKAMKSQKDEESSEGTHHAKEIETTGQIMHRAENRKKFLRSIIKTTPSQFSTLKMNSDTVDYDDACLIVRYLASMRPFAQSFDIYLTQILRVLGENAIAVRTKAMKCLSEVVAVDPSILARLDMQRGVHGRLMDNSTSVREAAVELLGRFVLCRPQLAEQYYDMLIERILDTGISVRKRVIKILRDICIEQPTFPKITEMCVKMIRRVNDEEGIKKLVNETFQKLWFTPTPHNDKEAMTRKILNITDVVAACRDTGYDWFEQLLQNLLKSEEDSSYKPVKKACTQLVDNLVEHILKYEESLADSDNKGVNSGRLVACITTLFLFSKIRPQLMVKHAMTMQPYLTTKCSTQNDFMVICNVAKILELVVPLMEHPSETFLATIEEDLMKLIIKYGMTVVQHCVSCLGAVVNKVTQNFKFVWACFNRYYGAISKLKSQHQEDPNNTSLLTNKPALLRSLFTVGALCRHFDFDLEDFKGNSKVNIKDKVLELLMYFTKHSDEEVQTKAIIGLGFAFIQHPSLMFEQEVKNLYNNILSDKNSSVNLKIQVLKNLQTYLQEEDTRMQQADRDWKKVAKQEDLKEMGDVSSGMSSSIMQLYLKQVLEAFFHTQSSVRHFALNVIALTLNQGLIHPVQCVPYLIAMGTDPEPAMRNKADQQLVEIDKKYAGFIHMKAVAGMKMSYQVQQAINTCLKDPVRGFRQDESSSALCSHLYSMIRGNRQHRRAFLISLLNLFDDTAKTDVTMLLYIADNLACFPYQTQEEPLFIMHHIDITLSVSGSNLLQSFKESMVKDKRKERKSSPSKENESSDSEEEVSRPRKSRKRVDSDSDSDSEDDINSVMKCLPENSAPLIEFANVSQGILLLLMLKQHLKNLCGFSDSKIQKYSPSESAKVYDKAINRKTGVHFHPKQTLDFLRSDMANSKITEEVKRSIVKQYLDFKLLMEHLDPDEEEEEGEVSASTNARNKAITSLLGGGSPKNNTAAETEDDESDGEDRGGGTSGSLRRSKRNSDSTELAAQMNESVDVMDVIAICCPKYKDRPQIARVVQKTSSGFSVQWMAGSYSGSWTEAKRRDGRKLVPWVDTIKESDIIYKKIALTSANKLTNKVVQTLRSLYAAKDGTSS
UniProt P08651, whole entry, looked up: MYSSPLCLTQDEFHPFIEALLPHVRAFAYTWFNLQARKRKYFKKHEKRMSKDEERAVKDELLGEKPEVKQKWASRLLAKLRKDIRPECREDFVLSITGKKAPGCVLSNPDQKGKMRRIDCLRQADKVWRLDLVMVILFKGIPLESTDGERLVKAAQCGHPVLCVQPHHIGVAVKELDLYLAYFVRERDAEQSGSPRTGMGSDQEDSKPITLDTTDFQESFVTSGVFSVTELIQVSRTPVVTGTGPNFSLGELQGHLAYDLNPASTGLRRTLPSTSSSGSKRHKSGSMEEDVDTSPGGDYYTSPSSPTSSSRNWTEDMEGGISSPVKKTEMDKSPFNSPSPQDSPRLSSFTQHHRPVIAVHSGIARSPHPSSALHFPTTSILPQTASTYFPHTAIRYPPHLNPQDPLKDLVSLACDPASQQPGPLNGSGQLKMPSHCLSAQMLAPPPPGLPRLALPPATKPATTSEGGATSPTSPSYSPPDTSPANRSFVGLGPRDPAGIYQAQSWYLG
UniProt Q8WX92, whole entry, looked up: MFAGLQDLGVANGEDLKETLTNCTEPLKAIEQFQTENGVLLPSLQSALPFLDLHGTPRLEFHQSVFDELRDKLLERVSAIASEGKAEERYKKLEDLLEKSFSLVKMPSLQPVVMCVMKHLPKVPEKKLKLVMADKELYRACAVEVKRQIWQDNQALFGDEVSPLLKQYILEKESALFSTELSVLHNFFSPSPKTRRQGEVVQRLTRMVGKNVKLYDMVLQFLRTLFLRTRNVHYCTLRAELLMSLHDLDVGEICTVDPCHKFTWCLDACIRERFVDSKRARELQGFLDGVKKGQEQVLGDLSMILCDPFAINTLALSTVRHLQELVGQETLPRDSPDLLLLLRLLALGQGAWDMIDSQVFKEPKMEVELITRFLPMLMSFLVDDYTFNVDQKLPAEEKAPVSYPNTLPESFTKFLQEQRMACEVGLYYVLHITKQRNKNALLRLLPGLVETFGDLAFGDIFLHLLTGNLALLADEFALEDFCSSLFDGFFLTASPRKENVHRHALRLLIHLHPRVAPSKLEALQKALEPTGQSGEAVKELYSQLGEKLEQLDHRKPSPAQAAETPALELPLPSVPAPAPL
UniProt O43920, whole entry, looked up: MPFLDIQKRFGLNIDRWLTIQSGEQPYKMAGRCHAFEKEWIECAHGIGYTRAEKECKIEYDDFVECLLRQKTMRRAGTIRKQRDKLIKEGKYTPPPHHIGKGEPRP
UniProt P56556, whole entry, looked up: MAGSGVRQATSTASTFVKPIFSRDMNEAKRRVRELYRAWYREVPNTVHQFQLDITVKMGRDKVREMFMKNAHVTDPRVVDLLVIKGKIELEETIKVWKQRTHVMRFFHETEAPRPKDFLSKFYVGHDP
UniProt Q9Y697: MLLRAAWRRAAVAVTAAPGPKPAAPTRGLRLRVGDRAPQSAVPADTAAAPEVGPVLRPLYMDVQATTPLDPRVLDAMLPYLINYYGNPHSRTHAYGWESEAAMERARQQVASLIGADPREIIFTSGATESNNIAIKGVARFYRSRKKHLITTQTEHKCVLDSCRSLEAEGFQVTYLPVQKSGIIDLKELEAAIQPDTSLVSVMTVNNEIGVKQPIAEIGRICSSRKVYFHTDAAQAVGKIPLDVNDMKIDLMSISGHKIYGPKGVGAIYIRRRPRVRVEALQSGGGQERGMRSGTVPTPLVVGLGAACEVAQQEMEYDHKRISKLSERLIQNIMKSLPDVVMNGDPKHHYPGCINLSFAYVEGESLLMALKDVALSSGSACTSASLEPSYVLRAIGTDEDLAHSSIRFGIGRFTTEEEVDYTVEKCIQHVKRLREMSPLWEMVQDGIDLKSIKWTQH

Key:
Assay in all cases: log2 fold change, soluble protein after heating vs DMSO (PISA); higher = thermal stabilisation; K562 lysate, 10 uM; active = over 0.2 and 3.5 SD of the protein, either way, in both replicates (recomputed)
lapatinib = compound: CS(=O)(=O)CCNCc1ccc(-c2ccc3ncnc(Nc4ccc(OCc5cccc(F)c5)c(Cl)c4)c3c2)o1 [lapatinib]
Method in brief: (§1)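 The values are log-two fold changes in thermal stability compared with solvent controls and come from duplicates. They were obtained by TMTpro 16plex LC-MS/MS, with channel sums equalised, on the supernatant after 21,000xg for 90 min. That supernatant came from crude K562 extract at 1 mg/mL protein treated with 10 μM compound for 30 min, heated for 3 min across 48°C-58°C, pooled and brought to 0.5% NP-40 at 4°C.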

pictilisib = compound: CS(=O)(=O)N1CCN(Cc2cc3nc(-c4cccc5[nH]ncc45)nc(N4CCOCC4)c3s2)CC1 [pictilisib]
Method in brief: as §1

crizotinib = compound: C[C@@H](Oc1cc(-c2cnn(C3CCNCC3)c2)cnc1N)c1c(Cl)ccc(F)c1Cl [crizotinib]
Method in brief: as §1

[1] = compound: C[C@H](C1=CC=C(C=C1)C(=O)NC2=C3C=CNC3=NC=C2)N
Method in brief: as §1

duvelisib = compound: C[C@H](Nc1ncnc2nc[nH]c12)c1cc2cccc(Cl)c2c(=O)n1-c1ccccc1 [duvelisib]
Method in brief: as §1

gandotinib = compound: Cc1cc(Nc2cc(CN3CCOCC3)c3nc(C)c(Cc4ccc(Cl)cc4F)n3n2)n[nH]1 [gandotinib]
Method in brief: as §1

tozasertib = compound: Cc1cc(Nc2cc(N3CCN(C)CC3)nc(Sc3ccc(NC(=O)C4CC4)cc3)n2)n[nH]1 [tozasertib]
Method in brief: as §1

doramapimod = compound: Cc1ccc(-n2nc(C(C)(C)C)cc2NC(=O)Nc2ccc(OCCN3CCOCC3)c3ccccc23)cc1 [doramapimod]
Method in brief: as §1

bafetinib = compound: Cc1ccc(NC(=O)c2ccc(CN3CC[C@H](N(C)C)C3)c(C(F)(F)F)c2)cc1Nc1nccc(-c2cncnc2)n1 [bafetinib]
Method in brief: as §1

[2] = compound: Cc1cccc(CC(=O)N2CCc3c2ccc(-c2cn(C)c4ncnc(N)c24)c3F)n1
Method in brief: as §1

nilotinib = compound: Cc1cn(-c2cc(NC(=O)c3ccc(C)c(Nc4nccc(-c5cccnc5)n4)c3)cc(C(F)(F)F)c2)cn1 [nilotinib]
Method in brief: as §1

[3] = compound: Cc1nc(Nc2n[nH]c3c2CN(C(=O)N[C@H](CN(C)C)c2ccccc2)C3(C)C)c2sccc2n1
Method in brief: as §1

dasatinib = compound: Cc1nc(Nc2ncc(C(=O)Nc3c(C)cccc3Cl)s2)cc(N2CCN(CCO)CC2)n1 [dasatinib]
Method in brief: as §1

[4] = compound: Cc1ncc(-c2ccnc(Nc3ccc(S(C)(=O)=O)cc3)n2)n1C(C)C
Method in brief: as §1

[5] = compound: Cn1cc(-c2ccc3c(c2)CCN3C(=O)Cc2cccc(C(F)(F)F)c2)c2c(N)ncnc21
Method in brief: as §1

quisinostat = compound: Cn1cc(CNCC2CCN(c3ncc(C(=O)NO)cn3)CC2)c2ccccc21 [quisinostat]
Method in brief: as §1

tipifarnib = compound: Cn1cncc1[C@@](N)(c1ccc(Cl)cc1)c1ccc2c(c1)c(-c1cccc(Cl)c1)cc(=O)n2C [tipifarnib]
Method in brief: as §1

[6] = compound: NC(=O)Nc1cc(-c2cccc(F)c2)sc1C(=O)N[C@H]1CCCNC1
Method in brief: as §1

[7] = compound: NC(=O)c1cnc(N[C@@H]2CCCC[C@@H]2N)nc1Nc1cccc(-n2nccn2)c1
Method in brief: as §1

[8] = compound: NC1(c2ccc(-c3nc4ccn5c(=O)[nH]nc5c4cc3-c3ccccc3)cc2)CCC1
Method in brief: as §1

Measured: log2 fold change

NFATC2 (UniProt Q13469)
inactive: lapatinib -0.003 | pictilisib 0.03 | crizotinib -0.021 | [1] 0.085 | duvelisib -0.017 | gandotinib 0.133 | tozasertib 0 | doramapimod 0.059 | bafetinib -0.02 | [2] 0.117 | nilotinib -0.001 | [3] -0.052 | dasatinib -0.033 | [4] 0.061 | [5] -0.001 | quisinostat -0.133 | tipifarnib -0.021 | [6] 0.024 | [7] -0.025 | [8] -0.023

NIPBL (UniProt Q6KC79)
inactive: lapatinib -0.03 | pictilisib -0.081 | crizotinib -0.034 | [1] 0.039 | duvelisib 0 | gandotinib -0.094 | tozasertib -0.005 | doramapimod 0.033 | bafetinib 0.001 | [2] 0.016 | nilotinib 0.06 | [3] -0.002 | dasatinib -0.037 | [4] 0.019 | [5] 0.091 | quisinostat -0.043 | tipifarnib 0.014 | [6] 0.02 | [7] 0.003 | [8] 0.018

NFIC (UniProt P08651)
inactive: lapatinib -0.004 | pictilisib 0.109 | crizotinib 0.007 | [1] -0.361 | duvelisib -0.002 | gandotinib 0.237 | tozasertib 0.035 | doramapimod 0.139 | bafetinib -0.038 | [2] 0.003 | nilotinib -0.058 | [3] -0.162 | dasatinib 0.014 | [4] -0.114 | [5] 0.022 | quisinostat -0.072 | tipifarnib 0.014 | [6] 0.029 | [7] 0.098 | [8] 0.016

NELFB isoform 2 (UniProt Q8WX92)
inactive: lapatinib 0.015 | pictilisib 0.028 | crizotinib -0.015 | [1] 0.012 | duvelisib -0.026 | gandotinib -0.079 | tozasertib -0.01 | doramapimod 0.001 | bafetinib -0.005 | [2] 0.023 | nilotinib 0.024 | [3] -0.01 | dasatinib -0.025 | [4] 0 | [5] 0.01 | quisinostat -0.02 | tipifarnib -0.014 | [6] 0 | [7] 0.005 | [8] -0.006

NDUFS5 (UniProt O43920)
inactive: lapatinib -0.011 | pictilisib -0.048 | crizotinib 0.003 | [1] 0.021 | duvelisib -0.037 | gandotinib -0.02 | tozasertib 0.046 | doramapimod 0.004 | bafetinib 0.013 | [2] -0.001 | nilotinib 0.011 | [3] -0.029 | dasatinib 0.015 | [4] 0.012 | [5] -0.031 | quisinostat -0.044 | tipifarnib 0.011 | [6] 0.042 | [7] -0.007 | [8] 0.047

NDUFA6 (UniProt P56556)
inactive: lapatinib -0.067 | pictilisib 0.002 | crizotinib -0.045 | [1] -0.01 | duvelisib 0.013 | gandotinib 0.039 | tozasertib 0.084 | doramapimod 0.112 | bafetinib 0.017 | [2] 0.055 | nilotinib 0.013 | [3] 0.005 | dasatinib -0.01 | [4] -0.015 | [5] 0.045 | quisinostat -0.128 | tipifarnib -0.043 | [6] -0.014 | [7] 0.014 | [8] 0.03

NDUFAB1 (UniProt O14561)
inactive: lapatinib 0.041 | pictilisib -0.064 | crizotinib 0.032 | [1] 0.056 | duvelisib -0.069 | gandotinib 0.009 | tozasertib 0.082 | doramapimod -0.084 | bafetinib -0.055 | [2] -0.006 | nilotinib 0.051 | [3] 0.006 | dasatinib -0.036 | [4] 0.172 | [5] -0.16 | quisinostat 0.186 | tipifarnib 0.027 | [6] -0.04 | [7] -0.065 | [8] 0.052

NFS1 (UniProt Q9Y697)
inactive: lapatinib -0.039 | pictilisib -0.015 | crizotinib 0.004 | [1] -0.034 | duvelisib 0.054 | gandotinib -0.024 | tozasertib 0.058 | doramapimod -0.032 | bafetinib 0.004 | [2] 0.009 | nilotinib -0.007 | [3] 0.001 | dasatinib -0.016 | [4] 0.021 | [5] 0.004 | quisinostat 0.01 | tipifarnib 0.018 | [6] 0.026 | [7] 0.017 | [8] -0.024
